Data taken from article PMC11550807.
These are yes or no findings as the source states them, for the method shown. In cells and extracts the contact can be indirect. A result given as binding can be weak or reduced; the word gives no strength.

Amino acid sequences for entries named in this document (tags omitted). A change or cut given only in a name is not applied to a line headed by its entry.
UniProt Q14315: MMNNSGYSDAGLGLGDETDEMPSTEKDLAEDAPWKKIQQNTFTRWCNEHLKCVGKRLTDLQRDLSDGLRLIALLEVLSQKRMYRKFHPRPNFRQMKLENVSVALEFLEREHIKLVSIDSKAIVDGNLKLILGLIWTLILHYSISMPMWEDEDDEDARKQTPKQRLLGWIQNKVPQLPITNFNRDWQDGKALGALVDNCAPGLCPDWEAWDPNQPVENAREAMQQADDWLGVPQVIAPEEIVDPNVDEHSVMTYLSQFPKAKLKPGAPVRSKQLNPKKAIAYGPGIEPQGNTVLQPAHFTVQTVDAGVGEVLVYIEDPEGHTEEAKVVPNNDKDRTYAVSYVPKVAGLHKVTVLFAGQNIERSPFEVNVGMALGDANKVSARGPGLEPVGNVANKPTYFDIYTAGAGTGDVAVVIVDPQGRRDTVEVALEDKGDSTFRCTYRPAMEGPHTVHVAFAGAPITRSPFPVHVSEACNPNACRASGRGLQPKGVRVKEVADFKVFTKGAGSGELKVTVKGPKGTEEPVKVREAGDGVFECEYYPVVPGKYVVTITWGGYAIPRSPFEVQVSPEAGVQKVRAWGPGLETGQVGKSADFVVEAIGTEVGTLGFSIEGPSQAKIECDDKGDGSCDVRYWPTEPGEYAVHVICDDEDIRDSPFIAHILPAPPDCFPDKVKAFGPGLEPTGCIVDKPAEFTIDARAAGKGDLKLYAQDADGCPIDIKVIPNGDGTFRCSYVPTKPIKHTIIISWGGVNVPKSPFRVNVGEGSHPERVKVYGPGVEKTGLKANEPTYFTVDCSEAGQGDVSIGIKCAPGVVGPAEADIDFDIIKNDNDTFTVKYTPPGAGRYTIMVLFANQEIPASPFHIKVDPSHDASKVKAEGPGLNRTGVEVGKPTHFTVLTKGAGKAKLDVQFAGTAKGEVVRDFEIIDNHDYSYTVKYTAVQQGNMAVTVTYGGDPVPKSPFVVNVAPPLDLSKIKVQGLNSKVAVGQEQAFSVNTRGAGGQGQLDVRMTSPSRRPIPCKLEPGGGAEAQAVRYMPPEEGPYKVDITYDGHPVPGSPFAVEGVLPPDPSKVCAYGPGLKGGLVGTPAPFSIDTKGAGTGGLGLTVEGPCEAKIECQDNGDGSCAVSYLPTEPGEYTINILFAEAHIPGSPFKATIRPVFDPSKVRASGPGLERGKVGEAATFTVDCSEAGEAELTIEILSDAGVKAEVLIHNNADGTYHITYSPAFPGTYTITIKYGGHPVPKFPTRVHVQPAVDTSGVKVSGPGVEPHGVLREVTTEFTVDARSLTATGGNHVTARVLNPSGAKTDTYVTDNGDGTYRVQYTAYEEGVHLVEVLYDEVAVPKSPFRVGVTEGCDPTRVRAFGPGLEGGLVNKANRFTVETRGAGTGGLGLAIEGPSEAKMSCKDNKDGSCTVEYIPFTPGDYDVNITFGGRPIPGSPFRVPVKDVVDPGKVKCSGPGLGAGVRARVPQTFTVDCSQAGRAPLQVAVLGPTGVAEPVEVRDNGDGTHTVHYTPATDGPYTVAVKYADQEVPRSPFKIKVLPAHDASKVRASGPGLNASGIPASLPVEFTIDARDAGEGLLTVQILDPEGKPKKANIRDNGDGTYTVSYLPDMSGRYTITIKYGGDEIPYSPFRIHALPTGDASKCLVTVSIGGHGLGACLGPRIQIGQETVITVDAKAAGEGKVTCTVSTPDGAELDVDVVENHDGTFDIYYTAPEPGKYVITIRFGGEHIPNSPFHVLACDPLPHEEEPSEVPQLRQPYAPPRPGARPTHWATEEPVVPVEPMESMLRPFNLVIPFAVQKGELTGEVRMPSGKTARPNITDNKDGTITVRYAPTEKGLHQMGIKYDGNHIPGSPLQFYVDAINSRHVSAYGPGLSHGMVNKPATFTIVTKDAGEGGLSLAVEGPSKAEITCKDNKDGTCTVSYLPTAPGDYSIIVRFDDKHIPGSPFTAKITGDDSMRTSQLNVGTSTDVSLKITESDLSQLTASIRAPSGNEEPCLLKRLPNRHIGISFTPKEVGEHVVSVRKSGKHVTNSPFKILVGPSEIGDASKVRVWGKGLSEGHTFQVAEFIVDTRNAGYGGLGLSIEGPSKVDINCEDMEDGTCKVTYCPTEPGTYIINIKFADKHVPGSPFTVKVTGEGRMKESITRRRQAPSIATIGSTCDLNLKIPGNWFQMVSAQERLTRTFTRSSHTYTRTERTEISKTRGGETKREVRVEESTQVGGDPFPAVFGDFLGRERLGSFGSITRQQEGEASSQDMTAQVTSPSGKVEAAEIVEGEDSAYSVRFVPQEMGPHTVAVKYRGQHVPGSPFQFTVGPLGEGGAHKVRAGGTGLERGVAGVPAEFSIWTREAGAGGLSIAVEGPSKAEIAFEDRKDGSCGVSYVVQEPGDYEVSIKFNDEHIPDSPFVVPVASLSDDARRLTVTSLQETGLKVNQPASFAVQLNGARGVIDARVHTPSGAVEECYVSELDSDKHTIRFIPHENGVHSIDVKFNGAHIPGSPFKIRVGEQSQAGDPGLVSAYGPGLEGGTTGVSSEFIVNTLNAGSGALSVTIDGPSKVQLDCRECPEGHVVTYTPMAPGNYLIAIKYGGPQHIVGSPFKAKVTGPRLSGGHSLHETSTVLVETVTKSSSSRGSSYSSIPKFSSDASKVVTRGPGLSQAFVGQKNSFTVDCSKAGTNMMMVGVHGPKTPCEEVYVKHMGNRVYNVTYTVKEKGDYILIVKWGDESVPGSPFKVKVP

Target: 3xFLAG-hFLNc d18-21-His-EEF, dephosphorylated by PP1c (human) (UniProt Q14315)
Assay: pull-down; 3xFLAG-hFLNc d18-21 immunopurified from HEK293 cells on anti-FLAG beads, treated on beads with or without recombinant PP1c, then incubated with C2 myotube lysate; Western blot of eluates for FILIP1, n = 6; only the target purified

B1: filamin-A-interacting protein 1 (FILIP1), endogenous in C2 myotubes (protein, UniProt Q9CS72 1-1214)
chain: MRSRNQGGESSSNGHVSCPKPSIISSDGGKGPSEDAKKNKANRKGEDDVMASGTVKRHLKPSGESEKKTKKPLELSKEDLIQLLSIMEGELQAREDVIHMLKTEKTKPEVLEAHYGSAEPEKVLRVLHRDAILAQEKSIGEDVYEKPISELDRLEEKQKETYRRMLEQLLLAEKCHRRTVYELENEKHKHTDYMNKSDDFTNLLEQERERLKKLLEQEKAYQARKEKENAKRLNKLRDELVKLKSFALMLVDERQMHIEQLGLQSQKVQDLTQKLREEEEKLKAITYKSKEDRQKLLKLEVDFEHKASRFSQEHEEMNAKLANQESHNRQLRLKLVGLSQRIEELEETNKSLQKAEEELQELRDKIAKGECGNSSLMAEVESLRKRVLEMEGKDEEITKTEAQCRELKKKLQEEEHHSKELRLEVEKLQKRMSELEKLEEAFSRSKSECTQLHLNLEKEKNLTKDLLNELEVVKSRVKELECSESRLEKVELSLKDDLTKLKSFTVMLVDERKNMMEKIKQEERKVDGLNKNFKVEQGKVMDVTEKLIEESKKLLKLKSEMEEKVYSLTKERDELMGKLRSEEERSCELSCSVDLLKKRLDGIEEVEREINRGRLCKGSEFTCPEDNKIRELTLEIERLKKRLQQLEVVEGDLMKTEDEYDQLEQKFRTEQDKANFLSQQLEEIKHQMAKNKAIEKGEAVSQEAELRHRFRMEEAKSRDLQAEVQALKEKIHELMNKEDQLSQLQVDYSVLQQRFMEEETKNKNMGREVLNLTKELELSKRYSRALRPSGNGRRMVDVPVASTGVQTEAVCGDAAEEETPAVFIRKSFQEENHIMSNLRQVGLKKPMERSSVLDRYPPAANELTMRKSWIPWMRKRENGPSAPQEKGPRPNQGTGHPGELVLAPKQGQPLHIRVTPDHENSTATLEITSPTSEEFFSSTTVIPTLGNQKPRITIIPSPNVMSQKPKSADPTLGPERAMSPVTITTISREKSPEGGRGAFADRPASPIQIMTVSTSAAPPEIAVSPDSQEVPMGRTILKVTPEKQTVPTPMRKYNANANIITTEDNKIHIHLGSQFKRSPGPAAAEGVSPVITVRPVNVTAEKEVSTGTVLRSPRNHLSSRPGANKVTSTITITPVTTSSTRGTQSVSGQDGSSQRPTPTRIPMSKGMKAGKPVVAAPGAGNLTKFQPRAETQSMKIELKKSAASSTASLGGGKG
binding: binds
